The whole screen tested about 340,000 compounds, of which about 170 (0.05%) were called active. The inconclusive results got no clear call from the source; some entries with a clear call stand among them for comparison. Calls come from the whole dose curve; as a rule, active = well fitted inhibition curve with a large enough effect in the signal ratio, with a control signal flat (not every such curve was filed as active); inconclusive = small, poorly fitted or top-dose-only effect, or effect the other way, or a change in a side signal; inactive = flat fitted curve, though single readings scatter; the % refers to the signal ratio. Where the call is inconclusive, the potency comes from a doubtful curve fit.
Assay: qHTS Assay to Find Inhibitors of Chronic Active B-Cell Receptor Signaling;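 for activity change, negative = inhibition: plate controls were basal doxycycline-induced cells for no effect and cells given 10 µM MG132 for full effect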
Conditions: ABC-DLBCL IkBa-CBG/CBR reporter, luminescence ratio (green luciferase fused to IkBa over red control in TMD8 lymphoma cells), 4 h; activity change, negative = inhibition: at 46.1 µM (top of the series) unless noted
Method in brief: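 TMD8 ABC-DLBCL cells carrying doxycycline-inducible green luciferase fused to IkappaBalpha plus unfused red luciferase were exposed to compounds (up to 46 uM) for 4 hrs at 37C. Activity came from the overlap-corrected green/red luminescence ratio.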
Potency is the fitted concentration of half-maximal effect.

Compound | Potency | activity change, negative = inhibition
CC(C)(C)n1cnc2cc(NC(=O)c3ccccc3)ccc21 | inconclusive: 35.5 µM [falling, single point] | 
C[C@@]12C(=O)Nc3ccc(Cl)cc3C(=O)N1[C@H]1c3cc(Br)ccc3OC[C@@H]1[C@@H]2c1ccccc1 |  | inconclusive: -0.384%
Cc1cccc(N(CC(=O)NC2CCCC2)C(=O)CCC(=O)Nc2nc(C)cs2)c1 |  | inconclusive: -0.754%
Cc1cccc(Cc2nnc(CCC(=O)NCc3ccncc3C)o2)c1 | inconclusive: 35.5 µM [falling, single point] | 
COc1cccc(C2CN(c3ccc(F)cc3F)N=C2c2cccs2)c1OC (stereo unspecified) |  | inactive
COc1ccc(NS(=O)(=O)c2ccc(C(=O)N3CCCCCC3)cc2)cc1 |  | inactive
CC(NC(=O)c1ccccc1Cl)C1CC2CCC1C2 (stereo unspecified) |  | inconclusive: -1.42%
O=C(CSc1nc2ccc(Cl)cc2[nH]1)NCCc1ccc(Cl)cc1 |  | inconclusive: -2.66%
CN(C)/C=N/c1c(C(=O)NCc2ccccc2)nnn1Cc1ccccc1 |  | inconclusive: 1.81%
O=C(Nc1ccc(F)cc1)C1CC(=O)n2cnnc2N1 (stereo unspecified) |  | inactive
COc1ccccc1CNS(=O)(=O)CCNC(=O)c1ccccc1 |  | inconclusive: 15.7%
O=C(O)Cc1ccc(C(=O)c2ccc(F)cc2)s1 | inconclusive: 18.4 µM [rising, partial curve, poor fit] | 
O=C(O)CCNc1cc(N2CCN(C(=O)c3ccco3)CC2)c2noc3c2c1C(=O)c1ccccc1-3 |  | inconclusive: -0.465%
COC(=O)c1sc(NC(=O)COc2cccnc2[N+](=O)[O-])c(C(=O)OC)c1C |  | inconclusive: -14.8%
Cc1ccc(S(=O)(=O)NCC(=O)OCc2csc(-c3ccccc3)n2)cc1 |  | inconclusive: -4.91%
C/C=C/c1ccc(OCC(=O)Nc2cc(S(=O)(=O)N3CCOCC3)ccc2N2CCCC2)c(OC)c1 |  | inconclusive: -0.033%
CC1(NC(=O)c2cccc(S(=O)(=O)N3CCCc4ccccc43)c2)CCS(=O)(=O)C1 (stereo unspecified) |  | inconclusive: -13.3%
O=C(Nc1ccc(Cl)cn1)c1ccc2c(Cl)c3c(nc2c1)CCC3 |  | inconclusive: -25.9%
COc1ccc(-c2[nH]n(-c3ccc([N+](=O)[O-])cc3)c(=O)c2C=NCC2CCCO2)cc1 (stereo unspecified) | inconclusive: 2.51 µM [rising, partial curve, poor fit] | 
O=C(N/N=C/c1cccc(C(F)(F)F)c1)c1ccc(O)cc1 | inconclusive: 22.4 µM [falling, partial curve] | 
CCCNC(=O)CCn1nc(-c2ccc(C)cc2)c2ccccc2c1=O |  | inconclusive: -0.804%
O=[N+]([O-])c1cc(S(=O)(=O)C(F)(F)F)ccc1Sc1nc2ccccc2[nH]1 | inconclusive: 2.31 µM [rising, partial curve, poor fit] | 
Cc1nn(Cc2ccccc2)c(C)c1NC(=O)c1cc2nc(-c3ccco3)cc(C(F)(F)F)n2n1 |  | inactive
CCCn1c(N)cc(=O)n(CCC)c1=O |  | inactive
O=C(NCc1ccc2c(c1)CCN2C(=O)c1ccncc1)c1ccccc1Br |  | inactive
COc1ccc(CNC(=O)c2sc(=S)n(-c3ccc(OC)cc3)c2N)cc1 |  | inconclusive: -13.4%

Compound | Potency | activity change, negative = inhibition
O=C(c1ccco1)N(CCCN1CCOCC1)c1nc(-c2ccc(F)cc2)cs1 |  | inactive
O=[N+]([O-])c1cc(S(=O)(=O)N2CCCC2)ccc1O |  | inconclusive: 1.29%
O=C(Nc1ccc(NC(=S)NC(=O)c2cccs2)cc1)c1ccco1 |  | inconclusive: -16.4%
CCCc1n(CC)c2ccccc2[n+]1CC(O)COC1CCCCC1 (stereo unspecified) |  | inactive
CCC(Sc1nc(N)c(NC(=O)c2ccco2)c(=O)[nH]1)C(=O)O (stereo unspecified) |  | inactive
Nc1nc(SCC(=O)c2ccc([N+](=O)[O-])cc2)n[nH]1 | inconclusive: 10 µM [falling, partial curve] | 
O=C1CC(c2ccc(Cl)cc2)CC(=O)C1CS(=O)(=O)c1ccccc1 (stereo unspecified) |  | inconclusive: 6.5%
O=C(Cc1cccs1)Nc1ccc(F)c(S(=O)(=O)N2CCOCC2)c1 |  | inactive
O=C(Cc1ccc(Cl)cc1)c1ccc(O)cc1 | inconclusive: 12.6 µM [falling, single point] | 
CCC1C/C(=C\c2cc(OC)c(OC)cc2OC)C(=O)/C(=C/c2cc(OC)c(OC)cc2OC)C1 (stereo unspecified) |  | inconclusive: 16.8%
COc1ccc(NC(=S)NC(NC(=O)c2ccccc2Cl)C(Cl)(Cl)Cl)c([N+](=O)[O-])c1 (stereo unspecified) | inconclusive: 29.1 µM [falling, single point] | 
COc1ccc(OC)c(CCNC(=O)C(=O)Nc2ccc3nc4n(c(=O)c3c2)CCCCC4)c1 |  | inconclusive: 5.33%
COc1ccc(CN(C(=O)CSc2nnc(-c3c[nH]c4ccccc34)o2)c2ccc(F)cc2)cc1OC |  | inconclusive: -5.72%
CCC(OCC(O)CN1CCN(CCN2C(=O)c3cccc4cccc(c34)C2=O)CC1)c1ccccc1 (stereo unspecified) | inconclusive: 20.6 µM [falling, single point] | 
COc1ccc(CCN(C)Cc2ccc(OCc3ccccc3)c(OC)c2)cc1OC |  | inconclusive: -16%
Nc1c(C(=O)Nc2ccccc2)sc2ncc([N+](=O)[O-])cc12 |  | inconclusive: -0.486%
COc1ccc(C2C(C(=O)N3CCN(c4ccccn4)CC3)CCC(=O)N2c2cc(OC)c(OC)c(OC)c2)cc1 (stereo unspecified) |  | inconclusive: 11.1%
COc1ccc(S(N)(=O)=O)cc1C(=O)OCC(=O)NC(C)(C#N)C1CC1 (stereo unspecified) |  | inconclusive: -1.11%
Cc1ccc2c(c1)c1c(n2CC(O)Cn2nc(C)c(Br)c2C)CCCC1 (stereo unspecified) |  | inconclusive: 18.1%
CCCC(=O)Nc1cnc(NC(=O)c2cccc(F)c2)cc1C | inconclusive: 20.6 µM [falling, single point] | 
O=C1NC(c2ccc(-c3ccccc3[N+](=O)[O-])o2)C(C(=O)c2ccc(Cl)cc2)C(O)(C(F)(F)F)N1 (stereo unspecified) |  | inconclusive: -4.08%
CCc1ccccc1NC(=O)C1CC(c2ccc(F)cc2)=NO1 (stereo unspecified) |  | inconclusive: -8.15%
COc1ccc(N2C(=O)[C@@H]3[C@H](C2=O)[C@H]2c4ccccc4C=CN2[C@@H]3C(=O)Nc2ccccc2)cc1 | inconclusive: 18.4 µM [falling, partial curve] | 
COc1ccc(C)cc1NC(=O)NNC(=O)C(C)Oc1ccc(F)cc1Cl (stereo unspecified) |  | inconclusive: 6.32%
COc1cccc(-c2nc(CS(=O)(=O)CC(=O)Nc3cc(F)ccc3F)c(C)o2)c1 |  | inactive
O=C1Oc2ccccc2C(=O)/C1=C/N1CCN(c2ccccc2F)CC1 | inconclusive: 10 µM [falling, partial curve] | 

Compound | Potency | activity change, negative = inhibition
O=C(CCCSc1nc2ccccc2s1)NCc1ccc2c(c1)OCO2 | inconclusive: 4.11 µM [activator, partial curve] | 
CCN(Cc1ccccc1)S(=O)(=O)c1ccc(S(=O)(=O)N(Cc2cccc(OC)c2)CC2CCCO2)cc1 (stereo unspecified) |  | inconclusive: 14.9%
CCCCN(CCCC)Cc1ccc(N)cc1 |  | inconclusive: 17.3%
Cn1nccc1C(=O)N/N=C/c1ccccc1[N+](=O)[O-] | inconclusive: 35.5 µM [falling, single point] | 
Cc1[nH]c2ccc(F)cc2c(=O)c1SC(F)(F)C(F)C(F)(F)F (stereo unspecified) | inconclusive: 14.6 µM [rising, partial curve, poor fit] | 
CC1=NN(C(=O)COc2ccccc2)C(O)(c2cccnc2)C1 (stereo unspecified) | inconclusive: 20 µM [falling, single point] | 
Cc1cc(C)cc(NC(=O)C(=O)NCCc2c[nH]c3ccccc23)c1 |  | inactive
O=C(NCc1ccccc1)C1CCCN(C(=O)c2ccc(F)cc2)C1 (stereo unspecified) |  | inactive
Cn1c(SCC(=O)N/N=C/c2ccc([N+](=O)[O-])s2)nnc1-c1ccccc1 |  | inconclusive: -11.4%
Cc1ccc(Cc2c(C)nc3nc(SCC(=O)NCc4ccco4)nn3c2C)cc1 | inconclusive: 15.8 µM [falling, single point] | 
CN(C(=O)CSc1ncnc2sc3c(c12)CCC3)C1CCS(=O)(=O)C1 (stereo unspecified) |  | inactive
CC(C)OC(=O)c1ccc(NC(=O)Cn2c(-c3nonc3N)nc3ccccc32)cc1 |  | inconclusive: 22.1%
CCOC(=O)c1cc(-c2ccc(F)cc2)n(CC(=O)NCc2ccc(OC)cc2)c1C |  | inactive
COc1ccc(/C=N/NC(=O)c2ccncc2)cc1COc1ccc(NC(C)=O)cc1 |  | inconclusive: -12.5%
O=C1CCCCC(=O)c2ccccc2N1 | inconclusive: 8.91 µM [rising, partial curve, poor fit] | 
Cc1c(NC(C)C)c(=O)n(-c2ccccc2)n1C |  | inconclusive: 1.05%
Cc1ccc(-c2nn(C)c(=O)c3ccccc23)cc1CO | inconclusive: 20.6 µM [falling, single point] | 
CC1(C)NC(=O)N(CCCCSc2ccc(Cl)cc2)C1=O | inconclusive: 29.1 µM [falling, single point] | 
COc1ccc(OC)c(NC(=S)NN2CCN(C)CC2)c1 |  | inconclusive: 8.99%
COc1cc(C)c(CN2CCC(Cc3ccccc3)CC2)cc1C |  | inconclusive: 1.35%
CCOc1ccc(Nc2ncnc3c2cnn3C)cc1 |  | inconclusive: -0.258%
CCOC(=O)C1(Cc2ccccc2)CCN(Cc2cccn2-c2cccnc2)CC1 |  | inconclusive: -13.6%
Cc1cc(C)n(CC(O)Cn2c3ccc(Cl)cc3c3cc(Cl)ccc32)c(=O)n1 (stereo unspecified) | inconclusive: 9.2 µM [rising, single point] | 
CCc1nc(C)cn1S(=O)(=O)c1cc([N+](=O)[O-])ccc1Cl | inconclusive: 35.5 µM [cytotoxic, single point] | 

Record cards, from the list above.
CCN(Cc1ccccc1)S(=O)(=O)c1ccc(S(=O)(=O)N(Cc2cccc(OC)c2)CC2CCCO2)cc1 (stereo unspecified) as listed: activity change, negative = inhibition: inconclusive: 14.9%
Cc1c(NC(C)C)c(=O)n(-c2ccccc2)n1C as listed: activity change, negative = inhibition: inconclusive: 1.05%
COc1ccc(C)cc1NC(=O)NNC(=O)C(C)Oc1ccc(F)cc1Cl (stereo unspecified) as listed: activity change, negative = inhibition: inconclusive: 6.32%
